PubChem BioAssay AID1259272 | Sanger Institute | 2017
Purpose: 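Kinome-wide siRNA search for genes whose silencing boosts targeted drug effects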 (primary screen). Cells: SW1116 human colorectal cancer cells. Reagents: siRNA pool against human genes. Treatment: anchor drugs BYL719 (1 µM), cetuximab (5 µg/ml) or trametinib (10 nM), or DMSO vehicle; exposure length not given. Measured: 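Replicate-averaged viability versus control-pool wells, with a robust z-score for siRNA alone and a per-drug synergy score (BYL719, cetuximab, trametinib)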. Reading the numbers: viability z-score, no drug: higher = more cells remaining; strongly negative means essential gene; viability, no drug: higher = more viable cells. Units: viability, no drug in fraction of control. Rule for the call: 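Called essential if the drug-free knock-down gives a robust viability z-score below -3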. Meaning of the calls: active = essential (knock-down alone); inactive = no change.
The whole screen tested 794 reagents; shown is a random part of them. 7 of them (0.88%) count as active. 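Essential calls reflect knock-down without drug only, not synergy with drugs; drug exposure length not given.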 Viability is capped at 1. Not all columns of the deposit are shown. The record does not give: the amount of reagent, the time to read-out.

{"target":"LIMK2 (LIM domain kinase 2)","viability z-score, no drug":0.842,"viability, no drug":1,"outcome":"inactive"}
{"target":"ADPGK (ADP dependent glucokinase)","viability z-score, no drug":0.842,"viability, no drug":1,"outcome":"inactive"}
{"target":"PIP5K1B (phosphatidylinositol-4-phosphate 5-kinase type 1 beta)","viability z-score, no drug":0.842,"viability, no drug":1,"outcome":"inactive"}
{"target":"CERT1 (ceramide transporter 1)","viability z-score, no drug":0.842,"viability, no drug":1,"outcome":"inactive"}
{"target":"CSK (C-terminal Src kinase)","viability z-score, no drug":0.842,"viability, no drug":1,"outcome":"inactive"}
{"target":"TBK1 (TANK binding kinase 1)","viability z-score, no drug":-2.19,"viability, no drug":0.677,"outcome":"inactive"}
{"target":"NEK4 (NIMA related kinase 4)","viability z-score, no drug":-1.13,"viability, no drug":0.79,"outcome":"inactive"}
{"target":"BLK (BLK proto-oncogene, Src family tyrosine kinase)","viability z-score, no drug":0.842,"viability, no drug":1,"outcome":"inactive"}
{"target":"NLK (nemo like kinase)","viability z-score, no drug":0.782,"viability, no drug":0.994,"outcome":"inactive"}
{"target":"GNE","viability z-score, no drug":0.842,"viability, no drug":1,"outcome":"inactive"}
{"target":"ALPK2 (alpha kinase 2)","viability z-score, no drug":-0.418,"viability, no drug":0.866,"outcome":"inactive"}
{"target":"CDK17 (cyclin dependent kinase 17)","viability z-score, no drug":-0.174,"viability, no drug":0.892,"outcome":"inactive"}
{"target":"MAP3K21 (mitogen-activated protein kinase kinase kinase 21)","viability z-score, no drug":0.187,"viability, no drug":0.93,"outcome":"inactive"}
{"target":"DCK (deoxycytidine kinase)","viability z-score, no drug":-1.76,"viability, no drug":0.722,"outcome":"inactive"}
{"target":"PAK5 (p21 (RAC1) activated kinase 5)","viability z-score, no drug":-1.05,"viability, no drug":0.798,"outcome":"inactive"}
{"target":"CRKL (CRK like proto-oncogene, adaptor protein)","viability z-score, no drug":-0.298,"viability, no drug":0.879,"outcome":"inactive"}
{"target":"NUAK2 (NUAK family kinase 2)","viability z-score, no drug":-1.93,"viability, no drug":0.704,"outcome":"inactive"}
{"target":"SF3B1 (splicing factor 3b subunit 1)","viability z-score, no drug":-3.32,"viability, no drug":0.557,"outcome":"active"}
{"target":"DDR2 (discoidin domain receptor tyrosine kinase 2)","viability z-score, no drug":0.842,"viability, no drug":1,"outcome":"inactive"}
{"target":"MAPK7 (mitogen-activated protein kinase 7)","viability z-score, no drug":0.842,"viability, no drug":1,"outcome":"inactive"}
{"target":"CDKN1B (cyclin dependent kinase inhibitor 1B)","viability z-score, no drug":0.41,"viability, no drug":0.954,"outcome":"inactive"}
{"target":"PIP5K1A (phosphatidylinositol-4-phosphate 5-kinase type 1 alpha)","viability z-score, no drug":0.778,"viability, no drug":0.993,"outcome":"inactive"}
{"target":"FLT4 (fms related receptor tyrosine kinase 4)","viability z-score, no drug":-1.96,"viability, no drug":0.702,"outcome":"inactive"}
{"target":"PIM2 (Pim-2 proto-oncogene, serine/threonine kinase)","viability z-score, no drug":0.0677,"viability, no drug":0.918,"outcome":"inactive"}
{"target":"LCK (LCK proto-oncogene, Src family tyrosine kinase)","viability z-score, no drug":-0.00699,"viability, no drug":0.91,"outcome":"inactive"}
{"target":"BMPR1B (bone morphogenetic protein receptor type 1B)","viability z-score, no drug":0.842,"viability, no drug":1,"outcome":"inactive"}
{"target":"DLG3 (discs large MAGUK scaffold protein 3)","viability z-score, no drug":-1.57,"viability, no drug":0.743,"outcome":"inactive"}
{"target":"GNAS (GNAS complex locus)","viability z-score, no drug":-1,"viability, no drug":0.804,"outcome":"inactive"}
{"target":"TRPM7","viability z-score, no drug":-0.063,"viability, no drug":0.904,"outcome":"inactive"}
{"target":"PDGFRL (platelet derived growth factor receptor like)","viability z-score, no drug":0.842,"viability, no drug":1,"outcome":"inactive"}
{"target":"NME3 (NME/NM23 nucleoside diphosphate kinase 3)","viability z-score, no drug":0.601,"viability, no drug":0.974,"outcome":"inactive"}
{"target":"PDGFRA (platelet derived growth factor receptor alpha)","viability z-score, no drug":0.842,"viability, no drug":1,"outcome":"inactive"}
{"target":"MAPK15 (mitogen-activated protein kinase 15)","viability z-score, no drug":0.842,"viability, no drug":1,"outcome":"inactive"}
{"target":"COQ8B (coenzyme Q8B)","viability z-score, no drug":0.608,"viability, no drug":0.975,"outcome":"inactive"}
{"target":"STK35 (serine/threonine kinase 35)","viability z-score, no drug":-0.833,"viability, no drug":0.822,"outcome":"inactive"}
{"target":"CDK5R2 (cyclin dependent kinase 5 regulatory subunit 2)","viability z-score, no drug":0.842,"viability, no drug":1,"outcome":"inactive"}

Entries above whose target name begins with D or d (3):
{"target":"DCK (deoxycytidine kinase)","viability z-score, no drug":-1.76,"viability, no drug":0.722,"outcome":"inactive"}
{"target":"DDR2 (discoidin domain receptor tyrosine kinase 2)","viability z-score, no drug":0.842,"viability, no drug":1,"outcome":"inactive"}
{"target":"DLG3 (discs large MAGUK scaffold protein 3)","viability z-score, no drug":-1.57,"viability, no drug":0.743,"outcome":"inactive"}
